Publication doi:10.1101/2020.10.12.335091
Results are given in words; binding and its absence hold for the method and conditions named. Some entries that bind do so weakly or less than the wild type. For some assays here: Sequences can lack the tags named with a protein. One block for each molecule: values may come before it.

Amino acid sequences for entries named in this document (tags omitted). A change or cut given only in a name is not applied to a line headed by its entry.
UniProt P16234: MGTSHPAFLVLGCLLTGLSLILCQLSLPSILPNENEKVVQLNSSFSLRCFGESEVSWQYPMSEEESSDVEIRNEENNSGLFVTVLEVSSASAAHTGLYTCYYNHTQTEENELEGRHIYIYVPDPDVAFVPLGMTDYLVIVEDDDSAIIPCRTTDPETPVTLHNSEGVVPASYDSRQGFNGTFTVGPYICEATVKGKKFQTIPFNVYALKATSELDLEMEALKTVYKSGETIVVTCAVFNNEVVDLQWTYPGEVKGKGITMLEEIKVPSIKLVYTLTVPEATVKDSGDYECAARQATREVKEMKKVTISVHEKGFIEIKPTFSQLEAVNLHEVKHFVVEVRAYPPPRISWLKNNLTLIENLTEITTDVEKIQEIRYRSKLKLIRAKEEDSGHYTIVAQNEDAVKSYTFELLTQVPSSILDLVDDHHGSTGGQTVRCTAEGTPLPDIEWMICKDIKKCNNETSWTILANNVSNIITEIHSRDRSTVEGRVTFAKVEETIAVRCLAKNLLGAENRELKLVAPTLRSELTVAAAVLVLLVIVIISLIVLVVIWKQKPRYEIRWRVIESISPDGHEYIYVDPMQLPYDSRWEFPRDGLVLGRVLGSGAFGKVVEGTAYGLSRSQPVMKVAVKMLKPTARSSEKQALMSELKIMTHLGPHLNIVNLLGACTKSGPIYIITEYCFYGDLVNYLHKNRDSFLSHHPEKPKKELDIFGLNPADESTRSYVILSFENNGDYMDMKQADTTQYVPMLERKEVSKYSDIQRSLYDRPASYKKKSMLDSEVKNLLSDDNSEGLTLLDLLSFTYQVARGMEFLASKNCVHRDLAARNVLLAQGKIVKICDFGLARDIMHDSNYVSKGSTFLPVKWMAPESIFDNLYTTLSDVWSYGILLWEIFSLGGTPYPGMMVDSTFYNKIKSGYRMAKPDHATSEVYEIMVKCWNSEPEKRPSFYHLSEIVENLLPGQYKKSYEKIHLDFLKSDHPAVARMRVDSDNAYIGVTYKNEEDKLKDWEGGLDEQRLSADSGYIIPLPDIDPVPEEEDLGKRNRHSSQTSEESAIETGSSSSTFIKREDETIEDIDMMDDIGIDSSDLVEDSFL

Experiments:
[1] = biological target: T1, Recombinant His-tagged Endocan (UniProt Q9NQ30); test: pull-down
T1 sequence: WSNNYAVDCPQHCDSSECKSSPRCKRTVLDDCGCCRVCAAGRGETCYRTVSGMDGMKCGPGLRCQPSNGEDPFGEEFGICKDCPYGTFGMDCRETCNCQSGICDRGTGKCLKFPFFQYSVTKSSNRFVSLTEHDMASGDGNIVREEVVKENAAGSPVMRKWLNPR

[2] = biological target: PDGFRA receptor, endogenous in patient-derived glioblastoma cells (human (endogenous in patient-derived gliomasphere lines)) (UniProt P16234); test: flow cytometry on cells

- binding [1]: binds
Molecule: Fc-tagged recombinant PDGFRA (from UniProt P16234 24-528) (Fc fusion)

- binding [2]: binds
B1: Recombinant Endocan labeled with Alexa488 (ligand, UniProt Q9NQ30 20-184)
chain: T1 sequence
modifications: Alexa Fluor 488 label (Microscale Protein Labeling Kit)
